Data from the supplement of paper PMC10849652.
Some of the results follow.

The chains behind the UniProt entries cited, without tags or fusion partners. Where a name states a change or a piece, a line headed by the entry shows the natural chain unless it says otherwise.
UniProt P21291: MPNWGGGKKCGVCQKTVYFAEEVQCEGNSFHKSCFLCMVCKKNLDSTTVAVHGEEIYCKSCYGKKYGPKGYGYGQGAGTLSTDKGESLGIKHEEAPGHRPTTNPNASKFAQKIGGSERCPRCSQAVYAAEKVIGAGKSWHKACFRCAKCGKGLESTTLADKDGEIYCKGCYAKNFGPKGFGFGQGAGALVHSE
UniProt P46109: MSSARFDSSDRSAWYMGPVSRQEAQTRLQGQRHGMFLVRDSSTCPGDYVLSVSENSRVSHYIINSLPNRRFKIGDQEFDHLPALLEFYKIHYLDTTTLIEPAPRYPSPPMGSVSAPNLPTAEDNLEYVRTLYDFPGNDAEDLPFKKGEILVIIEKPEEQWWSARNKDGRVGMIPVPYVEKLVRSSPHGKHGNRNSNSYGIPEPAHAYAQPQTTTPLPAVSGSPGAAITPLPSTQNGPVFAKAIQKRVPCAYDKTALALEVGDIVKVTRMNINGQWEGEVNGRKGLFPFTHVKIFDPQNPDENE
UniProt P46108: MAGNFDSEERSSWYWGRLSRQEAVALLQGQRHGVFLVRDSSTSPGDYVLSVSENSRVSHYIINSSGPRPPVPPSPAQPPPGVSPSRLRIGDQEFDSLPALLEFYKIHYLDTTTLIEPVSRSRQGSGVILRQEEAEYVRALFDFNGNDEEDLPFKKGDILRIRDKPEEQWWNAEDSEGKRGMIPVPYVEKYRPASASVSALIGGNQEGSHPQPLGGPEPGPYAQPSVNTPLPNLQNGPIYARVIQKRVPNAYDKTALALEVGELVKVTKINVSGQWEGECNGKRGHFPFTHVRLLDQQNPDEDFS
UniProt P67870, whole entry, looked up: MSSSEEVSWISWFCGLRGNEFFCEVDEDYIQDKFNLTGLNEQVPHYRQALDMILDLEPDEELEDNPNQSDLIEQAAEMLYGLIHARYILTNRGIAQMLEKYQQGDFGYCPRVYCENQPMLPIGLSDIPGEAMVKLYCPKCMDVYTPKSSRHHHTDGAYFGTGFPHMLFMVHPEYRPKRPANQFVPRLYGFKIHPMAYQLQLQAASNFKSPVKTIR
UniProt Q01459: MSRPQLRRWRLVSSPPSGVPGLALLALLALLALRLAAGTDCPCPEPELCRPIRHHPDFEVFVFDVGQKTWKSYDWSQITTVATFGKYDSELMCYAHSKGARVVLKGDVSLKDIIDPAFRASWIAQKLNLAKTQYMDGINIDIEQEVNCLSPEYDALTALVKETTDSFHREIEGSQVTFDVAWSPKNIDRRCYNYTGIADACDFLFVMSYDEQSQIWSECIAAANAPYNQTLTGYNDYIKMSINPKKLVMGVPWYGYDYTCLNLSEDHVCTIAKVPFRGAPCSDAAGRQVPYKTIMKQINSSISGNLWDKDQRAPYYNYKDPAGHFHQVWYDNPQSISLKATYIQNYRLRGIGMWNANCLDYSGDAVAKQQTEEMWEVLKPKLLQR
UniProt O95825: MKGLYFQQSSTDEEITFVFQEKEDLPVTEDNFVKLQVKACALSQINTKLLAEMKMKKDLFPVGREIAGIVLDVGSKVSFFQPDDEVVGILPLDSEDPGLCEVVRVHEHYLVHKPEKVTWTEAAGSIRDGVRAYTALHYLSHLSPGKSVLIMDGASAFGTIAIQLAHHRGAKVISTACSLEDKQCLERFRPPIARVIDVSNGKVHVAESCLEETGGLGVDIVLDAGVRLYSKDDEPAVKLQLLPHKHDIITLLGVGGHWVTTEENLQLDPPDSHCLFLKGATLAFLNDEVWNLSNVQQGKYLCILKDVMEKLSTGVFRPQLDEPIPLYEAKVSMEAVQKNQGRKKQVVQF
UniProt Q7L576: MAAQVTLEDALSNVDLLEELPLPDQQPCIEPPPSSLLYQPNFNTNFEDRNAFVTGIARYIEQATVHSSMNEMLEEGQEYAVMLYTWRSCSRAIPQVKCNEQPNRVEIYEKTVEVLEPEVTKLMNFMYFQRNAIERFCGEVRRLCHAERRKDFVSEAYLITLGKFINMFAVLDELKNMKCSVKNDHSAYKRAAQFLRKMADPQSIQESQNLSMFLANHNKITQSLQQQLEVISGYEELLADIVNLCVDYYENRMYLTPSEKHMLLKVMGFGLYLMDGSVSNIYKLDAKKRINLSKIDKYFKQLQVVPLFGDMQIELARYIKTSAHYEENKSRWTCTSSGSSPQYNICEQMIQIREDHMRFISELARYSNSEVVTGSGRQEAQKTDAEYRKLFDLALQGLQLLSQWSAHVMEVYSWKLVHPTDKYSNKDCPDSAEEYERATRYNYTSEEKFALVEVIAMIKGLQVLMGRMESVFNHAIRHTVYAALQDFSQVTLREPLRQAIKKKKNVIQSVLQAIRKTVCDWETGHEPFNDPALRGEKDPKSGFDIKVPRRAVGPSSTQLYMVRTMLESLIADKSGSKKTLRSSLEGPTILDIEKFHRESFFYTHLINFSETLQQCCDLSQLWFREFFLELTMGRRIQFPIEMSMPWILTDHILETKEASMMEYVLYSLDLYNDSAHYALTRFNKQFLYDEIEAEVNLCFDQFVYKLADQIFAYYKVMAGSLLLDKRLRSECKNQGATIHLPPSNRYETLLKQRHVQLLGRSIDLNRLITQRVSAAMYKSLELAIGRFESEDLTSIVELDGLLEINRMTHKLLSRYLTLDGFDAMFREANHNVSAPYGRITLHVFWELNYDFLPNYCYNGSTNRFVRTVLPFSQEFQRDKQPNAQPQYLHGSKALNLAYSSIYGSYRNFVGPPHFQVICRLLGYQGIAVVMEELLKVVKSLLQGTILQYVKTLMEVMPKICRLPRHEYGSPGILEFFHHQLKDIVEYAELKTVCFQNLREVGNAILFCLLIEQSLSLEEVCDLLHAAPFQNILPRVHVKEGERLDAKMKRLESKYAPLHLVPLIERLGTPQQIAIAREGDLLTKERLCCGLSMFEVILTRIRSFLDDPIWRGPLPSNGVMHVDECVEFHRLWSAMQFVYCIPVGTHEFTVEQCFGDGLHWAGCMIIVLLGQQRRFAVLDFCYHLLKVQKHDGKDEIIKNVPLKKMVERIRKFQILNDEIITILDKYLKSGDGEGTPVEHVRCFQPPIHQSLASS
UniProt P49674: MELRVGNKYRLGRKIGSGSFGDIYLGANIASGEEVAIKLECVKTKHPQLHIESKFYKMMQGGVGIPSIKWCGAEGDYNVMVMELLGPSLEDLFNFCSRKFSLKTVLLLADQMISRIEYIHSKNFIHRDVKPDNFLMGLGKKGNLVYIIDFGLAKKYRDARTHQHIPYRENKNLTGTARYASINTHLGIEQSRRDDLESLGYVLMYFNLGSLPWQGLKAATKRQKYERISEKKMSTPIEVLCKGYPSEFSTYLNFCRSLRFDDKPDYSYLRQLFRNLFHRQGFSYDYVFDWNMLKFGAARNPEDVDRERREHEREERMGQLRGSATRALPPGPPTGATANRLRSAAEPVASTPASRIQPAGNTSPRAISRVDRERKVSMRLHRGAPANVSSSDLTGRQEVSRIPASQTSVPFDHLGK
UniProt Q5JQC4: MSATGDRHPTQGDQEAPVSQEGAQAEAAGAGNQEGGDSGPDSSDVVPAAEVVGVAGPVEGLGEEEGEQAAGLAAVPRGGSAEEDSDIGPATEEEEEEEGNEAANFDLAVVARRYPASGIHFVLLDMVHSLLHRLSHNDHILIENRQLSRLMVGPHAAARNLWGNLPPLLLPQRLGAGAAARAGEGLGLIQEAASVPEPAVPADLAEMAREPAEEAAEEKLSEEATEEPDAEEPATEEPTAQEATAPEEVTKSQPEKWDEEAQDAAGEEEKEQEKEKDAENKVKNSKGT
UniProt O75534: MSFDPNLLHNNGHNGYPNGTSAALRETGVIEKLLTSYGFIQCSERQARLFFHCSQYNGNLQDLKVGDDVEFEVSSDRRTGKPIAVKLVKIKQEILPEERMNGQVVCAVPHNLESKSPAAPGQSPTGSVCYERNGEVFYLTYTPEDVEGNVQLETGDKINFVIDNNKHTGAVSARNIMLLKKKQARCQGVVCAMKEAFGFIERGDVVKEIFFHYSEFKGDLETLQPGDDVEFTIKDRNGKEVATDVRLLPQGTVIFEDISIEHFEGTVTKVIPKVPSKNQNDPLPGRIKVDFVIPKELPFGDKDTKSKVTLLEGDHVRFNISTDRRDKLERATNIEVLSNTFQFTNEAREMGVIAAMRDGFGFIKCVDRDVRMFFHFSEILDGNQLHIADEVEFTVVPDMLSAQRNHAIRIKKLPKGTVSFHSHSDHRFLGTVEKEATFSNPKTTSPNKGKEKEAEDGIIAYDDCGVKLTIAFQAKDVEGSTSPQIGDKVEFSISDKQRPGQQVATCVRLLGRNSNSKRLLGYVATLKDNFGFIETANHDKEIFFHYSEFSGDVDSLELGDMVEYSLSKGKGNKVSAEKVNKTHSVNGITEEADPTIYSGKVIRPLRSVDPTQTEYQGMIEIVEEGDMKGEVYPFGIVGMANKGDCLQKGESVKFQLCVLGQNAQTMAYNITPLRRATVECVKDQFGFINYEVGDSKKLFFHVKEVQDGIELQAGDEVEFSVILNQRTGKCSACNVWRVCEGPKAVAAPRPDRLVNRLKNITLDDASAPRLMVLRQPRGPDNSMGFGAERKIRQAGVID
UniProt Q08257: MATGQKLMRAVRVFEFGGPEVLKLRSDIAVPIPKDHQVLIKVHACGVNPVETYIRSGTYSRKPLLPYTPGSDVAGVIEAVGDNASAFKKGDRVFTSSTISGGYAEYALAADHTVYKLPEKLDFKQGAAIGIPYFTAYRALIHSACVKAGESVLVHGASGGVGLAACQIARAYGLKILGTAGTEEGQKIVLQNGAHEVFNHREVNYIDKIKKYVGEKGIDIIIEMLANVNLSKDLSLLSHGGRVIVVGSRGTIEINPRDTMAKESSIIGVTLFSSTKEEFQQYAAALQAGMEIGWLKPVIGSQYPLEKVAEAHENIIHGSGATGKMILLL
UniProt P78368: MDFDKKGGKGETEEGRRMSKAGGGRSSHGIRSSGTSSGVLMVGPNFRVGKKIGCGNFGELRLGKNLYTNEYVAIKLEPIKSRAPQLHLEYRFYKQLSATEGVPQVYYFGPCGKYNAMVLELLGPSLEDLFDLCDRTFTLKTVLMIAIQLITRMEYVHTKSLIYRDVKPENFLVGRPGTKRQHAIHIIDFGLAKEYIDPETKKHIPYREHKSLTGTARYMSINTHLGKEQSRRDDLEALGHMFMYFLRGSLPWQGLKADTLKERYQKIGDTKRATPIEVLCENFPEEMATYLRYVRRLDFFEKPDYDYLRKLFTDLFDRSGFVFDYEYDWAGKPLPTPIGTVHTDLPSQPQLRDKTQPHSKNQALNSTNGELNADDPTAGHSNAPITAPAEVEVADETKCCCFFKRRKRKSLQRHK
UniProt Q14247: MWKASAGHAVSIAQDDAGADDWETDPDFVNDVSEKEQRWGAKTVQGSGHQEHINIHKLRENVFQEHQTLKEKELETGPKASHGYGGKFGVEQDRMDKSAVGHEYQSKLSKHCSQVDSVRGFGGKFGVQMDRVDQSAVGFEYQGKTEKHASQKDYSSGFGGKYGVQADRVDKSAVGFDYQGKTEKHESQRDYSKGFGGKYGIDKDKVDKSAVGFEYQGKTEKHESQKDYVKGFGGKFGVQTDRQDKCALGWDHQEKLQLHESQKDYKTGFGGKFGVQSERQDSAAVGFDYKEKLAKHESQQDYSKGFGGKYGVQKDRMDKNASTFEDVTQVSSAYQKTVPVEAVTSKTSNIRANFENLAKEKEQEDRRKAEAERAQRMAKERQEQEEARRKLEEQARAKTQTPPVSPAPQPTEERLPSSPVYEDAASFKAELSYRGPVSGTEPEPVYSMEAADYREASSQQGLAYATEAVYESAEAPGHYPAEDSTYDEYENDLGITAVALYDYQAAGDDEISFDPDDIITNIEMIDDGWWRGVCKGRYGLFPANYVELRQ

What was measured:
Assay in all cases: log2 fold change, soluble protein after heating vs DMSO (PISA); higher = thermal stabilisation; K562 lysate, 10 uM; active = over 0.2 and 3.5 SD of the protein, either way, in both replicates (recomputed)
[1] = compound: CS(=O)(=O)CCNCc1ccc(-c2ccc3ncnc(Nc4ccc(OCc5cccc(F)c5)c(Cl)c4)c3c2)o1 [lapatinib]
In short: (§1)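 Values give the log-two fold change in thermal stability against solvent controls, from duplicates. Crude K562 extract at 1 mg/mL protein, made by dounce homogenisation in PBS pH 7.4 with 1 mM MgCl2, was treated with 10 μM compound for 30 min. After 3 min heating across 48°C-58°C, aliquots were pooled, adjusted to 0.5% NP-40 at 4°C and centrifuged at 21,000xg for 90 min. The supernatant was measured by TMTpro 16plex LC-MS/MS with channel sums equalised.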

[2] = compound: CS(=O)(=O)N1CCN(Cc2cc3nc(-c4cccc5[nH]ncc45)nc(N4CCOCC4)c3s2)CC1 [pictilisib]
In short: as §1

[3] = compound: C[C@@H](Oc1cc(-c2cnn(C3CCNCC3)c2)cnc1N)c1c(Cl)ccc(F)c1Cl [crizotinib]
In short: as §1

[4] = compound: C[C@H](C1=CC=C(C=C1)C(=O)NC2=C3C=CNC3=NC=C2)N
In short: as §1

[5] = compound: C[C@H](Nc1ncnc2nc[nH]c12)c1cc2cccc(Cl)c2c(=O)n1-c1ccccc1 [duvelisib]
In short: as §1

[6] = compound: Cc1cc(Nc2cc(CN3CCOCC3)c3nc(C)c(Cc4ccc(Cl)cc4F)n3n2)n[nH]1 [gandotinib]
In short: as §1

[7] = compound: Cc1cc(Nc2cc(N3CCN(C)CC3)nc(Sc3ccc(NC(=O)C4CC4)cc3)n2)n[nH]1 [tozasertib]
In short: as §1

[8] = compound: Cc1ccc(-n2nc(C(C)(C)C)cc2NC(=O)Nc2ccc(OCCN3CCOCC3)c3ccccc23)cc1 [doramapimod]
In short: as §1

[9] = compound: Cc1ccc(NC(=O)c2ccc(CN3CC[C@H](N(C)C)C3)c(C(F)(F)F)c2)cc1Nc1nccc(-c2cncnc2)n1 [bafetinib]
In short: as §1

[10] = compound: Cc1cccc(CC(=O)N2CCc3c2ccc(-c2cn(C)c4ncnc(N)c24)c3F)n1
In short: as §1

[11] = compound: Cc1cn(-c2cc(NC(=O)c3ccc(C)c(Nc4nccc(-c5cccnc5)n4)c3)cc(C(F)(F)F)c2)cn1 [nilotinib]
In short: as §1

[12] = compound: Cc1nc(Nc2n[nH]c3c2CN(C(=O)N[C@H](CN(C)C)c2ccccc2)C3(C)C)c2sccc2n1
In short: as §1

[13] = compound: Cc1nc(Nc2ncc(C(=O)Nc3c(C)cccc3Cl)s2)cc(N2CCN(CCO)CC2)n1 [dasatinib]
In short: as §1

[14] = compound: Cc1ncc(-c2ccnc(Nc3ccc(S(C)(=O)=O)cc3)n2)n1C(C)C
In short: as §1

[15] = compound: Cn1cc(-c2ccc3c(c2)CCN3C(=O)Cc2cccc(C(F)(F)F)c2)c2c(N)ncnc21
In short: as §1

[16] = compound: Cn1cc(CNCC2CCN(c3ncc(C(=O)NO)cn3)CC2)c2ccccc21 [quisinostat]
In short: as §1

[17] = compound: Cn1cncc1[C@@](N)(c1ccc(Cl)cc1)c1ccc2c(c1)c(-c1cccc(Cl)c1)cc(=O)n2C [tipifarnib]
In short: as §1

[18] = compound: NC(=O)Nc1cc(-c2cccc(F)c2)sc1C(=O)N[C@H]1CCCNC1
In short: as §1

[19] = compound: NC(=O)c1cnc(N[C@@H]2CCCC[C@@H]2N)nc1Nc1cccc(-n2nccn2)c1
In short: as §1

[20] = compound: NC1(c2ccc(-c3nc4ccn5c(=O)[nH]nc5c4cc3-c3ccccc3)cc2)CCC1
In short: as §1

Measured: log2 fold change

CSRP1 (UniProt P21291)
inactive: [1] -0.007 | [2] -0.013 | [3] 0.006 | [4] -0.124 | [5] -0.044 | [6] 0.023 | [7] -0.002 | [8] -0.04 | [9] -0.013 | [10] 0.037 | [11] 0.049 | [12] 0.044 | [13] 0.046 | [14] 0.054 | [15] -0.041 | [16] 0.024 | [17] -0.015 | [18] -0.05 | [19] -0.009 | [20] -0.028

CTBP1 (UniProt Q13363)
inactive: [1] -0.007 | [2] 0.004 | [3] -0.021 | [4] -0.012 | [5] 0.007 | [6] 0.025 | [7] -0.005 | [8] -0.015 | [9] 0.02 | [10] 0.008 | [11] 0.047 | [12] 0.004 | [13] -0.015 | [14] 0.037 | [15] -0.032 | [16] -0.044 | [17] 0.209 | [18] 0.032 | [19] 0.016 | [20] 0.007

CRKL (UniProt P46109)
inactive: [1] -0.013 | [2] 0 | [3] 0.011 | [4] -0.017 | [5] 0.02 | [6] 0.049 | [7] -0.003 | [8] -0.007 | [9] 0.003 | [10] 0.036 | [11] 0.019 | [12] 0.004 | [13] 0.002 | [14] -0.013 | [15] -0.013 | [16] -0.019 | [17] 0.014 | [18] -0.013 | [19] -0.005 | [20] 0.015

CRK (UniProt P46108)
inactive: [1] -0.026 | [2] -0.031 | [3] -0.045 | [4] -0.011 | [5] 0.005 | [6] 0.044 | [7] 0.053 | [8] 0.009 | [9] -0.015 | [10] -0.016 | [11] 0.005 | [12] -0.001 | [13] 0.024 | [14] -0.018 | [15] -0.014 | [16] -0.078 | [17] 0.011 | [18] 0.024 | [19] 0.011 | [20] -0.009

CSNK2B (UniProt P67870)
inactive: [1] -0.052 | [2] 0.023 | [3] -0.073 | [4] 0.027 | [5] -0.053 | [6] 0.016 | [7] 0.004 | [8] 0.022 | [9] 0.064 | [10] -0.05 | [11] 0.086 | [12] -0.029 | [13] -0.014 | [14] 0.034 | [15] -0.006 | [16] -0.005 | [17] -0.058 | [18] 0.028 | [19] 0.042 | [20] -0.049

Reprinted from the entries so far (3 entries):
CSRP1 (UniProt P21291)
inactive: [1] -0.007 | [2] -0.013 | [3] 0.006 | [4] -0.124 | [5] -0.044 | [6] 0.023 | [7] -0.002 | [8] -0.04 | [9] -0.013 | [10] 0.037 | [11] 0.049 | [12] 0.044 | [13] 0.046 | [14] 0.054 | [15] -0.041 | [16] 0.024 | [17] -0.015 | [18] -0.05 | [19] -0.009 | [20] -0.028

CTBP1 (UniProt Q13363)
inactive: [1] -0.007 | [2] 0.004 | [3] -0.021 | [4] -0.012 | [5] 0.007 | [6] 0.025 | [7] -0.005 | [8] -0.015 | [9] 0.02 | [10] 0.008 | [11] 0.047 | [12] 0.004 | [13] -0.015 | [14] 0.037 | [15] -0.032 | [16] -0.044 | [17] 0.209 | [18] 0.032 | [19] 0.016 | [20] 0.007

CRKL (UniProt P46109)
inactive: [1] -0.013 | [2] 0 | [3] 0.011 | [4] -0.017 | [5] 0.02 | [6] 0.049 | [7] -0.003 | [8] -0.007 | [9] 0.003 | [10] 0.036 | [11] 0.019 | [12] 0.004 | [13] 0.002 | [14] -0.013 | [15] -0.013 | [16] -0.019 | [17] 0.014 | [18] -0.013 | [19] -0.005 | [20] 0.015

Later entries:

CTBS (UniProt Q01459)
inactive: [1] 0.02 | [2] -0.022 | [3] 0.004 | [4] 0.012 | [5] 0.078 | [6] 0.039 | [7] -0.006 | [8] -0.093 | [9] 0.004 | [10] -0.039 | [11] 0.043 | [12] -0.023 | [13] 0.034 | [14] 0.067 | [15] -0.005 | [16] 0.031 | [17] -0.023 | [18] 0.021 | [19] -0.032 | [20] -0.03

CRYZL1 (UniProt O95825)
inactive: [1] -0.021 | [2] -0.032 | [3] 0.016 | [4] -0.033 | [5] 0.029 | [6] 0.057 | [7] 0.081 | [8] -0.001 | [9] 0.008 | [10] 0.019 | [11] -0.006 | [12] 0.022 | [13] 0.021 | [14] 0.015 | [15] -0.028 | [16] 0.006 | [17] -0.006 | [18] 0.039 | [19] -0.021 | [20] -0.032

CYFIP1 (UniProt Q7L576)
inactive: [1] 0.018 | [2] -0.015 | [3] -0.023 | [4] -0.057 | [5] 0.018 | [6] -0.015 | [7] 0.014 | [8] 0 | [9] -0.006 | [10] 0.028 | [11] 0.009 | [12] -0.017 | [13] -0.012 | [14] -0.029 | [15] -0.004 | [16] 0.023 | [17] 0.027 | [18] 0.003 | [19] 0.002 | [20] 0.006

CSNK1E (UniProt P49674)
inactive: [1] -0.026 | [2] 0.103 | [3] 0.004 | [4] 0.135 | [5] -0.016 | [6] -0.134 | [7] -0.065 | [8] 0.003 | [9] -0.024 | [10] -0.061 | [11] -0.025 | [12] -0.008 | [13] 0.053 | [14] 0.091 | [15] -0.078 | [16] -0.075 | [17] -0.092 | [18] 0.059 | [19] 0.055 | [20] -0.06

CT47A1 (UniProt Q5JQC4)
inactive: [1] -0.026 | [2] -0.085 | [3] 0.078 | [4] 0.06 | [5] 0.063 | [6] -0.074 | [7] -0.024 | [8] -0.006 | [9] -0.043 | [10] -0.028 | [11] 0.02 | [12] 0.001 | [13] -0.025 | [14] -0.031 | [15] 0.061 | [16] 0.026 | [17] 0 | [18] 0.021 | [19] -0.037 | [20] 0.018

CSDE1 isoform 4 (UniProt O75534)
inactive: [1] 0.001 | [2] -0.004 | [3] -0.006 | [4] 0.041 | [5] -0.015 | [6] -0.095 | [7] 0.003 | [8] 0.005 | [9] -0.021 | [10] -0.017 | [11] 0.01 | [12] -0.018 | [13] -0.012 | [14] 0.001 | [15] 0.048 | [16] 0.014 | [17] 0.012 | [18] 0.041 | [19] -0.009 | [20] -0.016

CXorf56 (UniProt Q9H5V9)
inactive: [1] -0.011 | [2] 0 | [3] 0.009 | [4] -0.01 | [5] 0.016 | [6] 0.037 | [7] 0.02 | [8] -0.029 | [9] -0.008 | [10] -0.028 | [11] -0.017 | [12] 0.072 | [13] -0.024 | [14] -0.039 | [15] 0.015 | [16] 0.009 | [17] 0.02 | [18] -0.006 | [19] -0.005 | [20] -0.03

CRYZ (UniProt Q08257)
inactive: [1] -0.011 | [2] -0.011 | [3] 0.006 | [4] -0.095 | [5] 0.022 | [6] 0.041 | [7] -0.003 | [8] -0.017 | [9] -0.003 | [10] 0.018 | [11] 0.02 | [12] -0.021 | [13] 0 | [14] 0.014 | [15] -0.011 | [16] -0.027 | [17] 0.007 | [18] -0.019 | [19] -0.005 | [20] 0.003

CTSB (UniProt P07858)
inactive: [1] -0.004 | [2] -0.034 | [3] -0.022 | [4] -0.05 | [5] 0.009 | [6] 0.025 | [7] 0.009 | [8] -0.057 | [9] -0.05 | [10] 0.015 | [11] -0.031 | [12] -0.009 | [13] 0.024 | [14] 0.022 | [15] -0.013 | [16] 0.036 | [17] 0.028 | [18] 0.014 | [19] -0.006 | [20] -0.022

CSNK1G2 (UniProt P78368)
inactive: [1] -0.284 | [2] 0.164 | [3] -0.085 | [4] -0.25 | [5] 0.045 | [6] 0.13 | [7] -0.095 | [8] 0.061 | [9] -0.118 | [10] 0.072 | [11] -0.084 | [12] 0.183 | [13] 0.001 | [14] 0.281 | [15] -0.023 | [16] -0.03 | [17] 0.039 | [18] 0.127 | [19] 0 | [20] 0.087

CTTN isoform 2 (UniProt Q14247)
inactive: [1] 0.008 | [2] 0.026 | [3] 0.025 | [4] -0.017 | [5] -0.022 | [6] 0.057 | [7] -0.021 | [8] -0.025 | [9] 0 | [10] -0.016 | [11] -0.03 | [12] 0.012 | [13] -0.006 | [14] -0.015 | [15] -0.038 | [16] 0.023 | [17] 0.003 | [18] -0.027 | [19] -0.013 | [20] -0.012
